Measurements: patent publication CN116063501A
Results are given in words; binding and its absence hold for the method and conditions named. Some binding calls cover weakened binding; strength is not graded here.

Molecular target: CD4抗原 (UniProt P01730)
Assay: flow cytometry on a mixture of K562-CD4 and K562 cells; 1 μg antibody; APC goat anti-mouse IgG secondary

binding: binds
B1: 抗CD4-1抗体 (antibody, V domains shown)
VH: EVQLQQSGPELVKPGDSVKMSCKASGYTFTDYFMDWVKQSHGKSLEWIGYIYPNNGGTNNNQKFKGKATLTVDKSSSTAYMELHSLTSEDSAVYYCARRGYDEGFAYWGQGTLVTVSS
VL: DILLTQSPAILSVSPGERVSFSCRASQIIGTSILWYQQRTNGSPRLLIKYASESISGIPSRFSGSGSGTDFTLSINSVESEDIADYYCQQSNTWPFTFGGGTKLEMK
